Reference: PMC7433896
These are yes or no findings as the source states them, for the method shown. Binding seen in cells or lysates may run through a third protein. Some results given as binding are weak or reduced against the parent protein; the word gives no strength.

The chains behind the UniProt entries cited, without tags or fusion partners. Residues count along the entry.
UniProt O70174, residues 31-629: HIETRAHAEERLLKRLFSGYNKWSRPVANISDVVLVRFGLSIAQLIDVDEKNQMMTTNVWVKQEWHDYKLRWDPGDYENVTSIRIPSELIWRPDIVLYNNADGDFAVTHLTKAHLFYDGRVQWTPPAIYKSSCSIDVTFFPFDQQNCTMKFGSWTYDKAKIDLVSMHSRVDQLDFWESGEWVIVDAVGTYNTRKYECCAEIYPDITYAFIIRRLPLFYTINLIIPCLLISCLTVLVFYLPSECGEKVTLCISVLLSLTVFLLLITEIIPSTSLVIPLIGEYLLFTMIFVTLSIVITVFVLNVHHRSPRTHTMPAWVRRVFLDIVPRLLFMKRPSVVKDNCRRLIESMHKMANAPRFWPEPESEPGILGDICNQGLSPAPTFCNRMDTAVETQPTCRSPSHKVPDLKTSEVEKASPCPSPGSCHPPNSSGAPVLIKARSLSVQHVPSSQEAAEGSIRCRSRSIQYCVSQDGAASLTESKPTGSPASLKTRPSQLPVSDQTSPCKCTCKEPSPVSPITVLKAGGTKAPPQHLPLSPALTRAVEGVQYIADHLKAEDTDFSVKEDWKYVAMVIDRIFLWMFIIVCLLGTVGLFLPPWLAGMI

How the values were obtained:
[1] = molecular target: α4-mCherry nAChR subunit (cDNA plasmid, neuro-2a cells) (UniProt O70174); experiment: FRET or BRET; pixel-based NFRET by confocal microscopy of neuro-2a cells transiently transfected with the tagged subunits and β2wt; control medium or 0.5 μM farnesene for 24 h
[2] = molecular target: α4-mCherry nAChR subunit (α4-mCherry knock-in mice) (mouse) (UniProt O70174); experiment: FRET or BRET; pixel-based normalized FRET (NFRET, PixFRET ImageJ plug-in) by confocal microscopy of 20 μm coronal brain sections of α4-mCherryα6-GFP mice, VTA dopamine neurons; mice treated with saline or 0.1 mg/kg farnesene

binding [1] | binding [2] | Substance
binds |  | α4-mCherry nAChR subunit (cDNA plasmid, neuro-2a cells) (from UniProt O70174 31-629)
binds |  | α6-GFP nAChR subunit (cDNA plasmid, neuro-2a cells) (from UniProt Q9R0W9 31-494)
 | binds | α6-GFP nAChR subunit (α6-GFP BAC transgenic mice) (from UniProt Q9R0W9 31-494)
